Values from PubChem BioAssay AID1224830 (NIAID, 2016).

Aim: 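Host factors that control LPS-induced TNF expression in human macrophages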 (primary screen)
Cell system: human THP-1 monocytic leukaemia cells, TNF dual-luciferase reporter clone, PMA-differentiated to macrophage-like cells
Knock-down reagent: siRNA pool against human genes, 50 nM
Duration: LPS for 4 h, given about 3 days after siRNA transfection
Conditions: bacterial LPS (TLR4 ligand), 10 ng/ml
Detection: 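TNF firefly reporter luminescence divided by renilla, normalised to the plate median, then turned into a robust z-score for each replicate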
Scale: TNF reporter robust z-score: higher = stronger TNF reporter response to LPS
Active means: 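a well is active when its z-score exceeds 2.8 or falls below -1.5; control wells carry no call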
Shown is one part, drawn at random, of about 18,000 reagents tested. Of all reagents, about 2,900 (16%) are marked active. 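Calls are made per well; low scores hint the gene aids the LPS response, high scores that it dampens it.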 Entries without a mark were called inactive. Repeated entries: four replicate wells of each siRNA pool.

| Gene | PubChem SID | TNF reporter robust z-score |
| --- | --- | --- |
| TMEM44 (transmembrane protein 44) | SID315461058 | 0.72 |
| TMEM44 (transmembrane protein 44) | SID315461058 | 0.41 |
| TMEM44 (transmembrane protein 44) | SID315461058 | -0.14 |
| TMEM44 (transmembrane protein 44) | SID315461058 | -0.13 |
| IL23A (interleukin 23 subunit alpha) | SID315456781 | 3.02 (active) |
| IL23A (interleukin 23 subunit alpha) | SID315456781 | 5.29 (active) |
| IL23A (interleukin 23 subunit alpha) | SID315456781 | 0.49 |
| IL23A (interleukin 23 subunit alpha) | SID315456781 | -0.2 |
| SOAT1 (sterol O-acyltransferase 1) | SID315451571 | -0.67 |
| SOAT1 (sterol O-acyltransferase 1) | SID315451571 | 0.15 |
| SOAT1 (sterol O-acyltransferase 1) | SID315451571 | 0.02 |
| SOAT1 (sterol O-acyltransferase 1) | SID315451571 | 0.43 |
| PLA2G4E (phospholipase A2 group IVE) | SID315461587 | 0.06 |
| PLA2G4E (phospholipase A2 group IVE) | SID315461587 | -0.2 |
| PLA2G4E (phospholipase A2 group IVE) | SID315461587 | -0.48 |
| MTBP (MDM2 binding protein) | SID315455908 | 3.36 (active) |
| MTBP (MDM2 binding protein) | SID315455908 | 4.77 (active) |
| MTBP (MDM2 binding protein) | SID315455908 | 0.94 |
| MTBP (MDM2 binding protein) | SID315455908 | 2.32 |
| FFAR3 (free fatty acid receptor 3) | SID315449014 | 0.22 |
| FFAR3 (free fatty acid receptor 3) | SID315449014 | 1.21 |
| FFAR3 (free fatty acid receptor 3) | SID315449014 | 0.67 |
| FFAR3 (free fatty acid receptor 3) | SID315449014 | 0.82 |
| TMBIM1 (transmembrane BAX inhibitor motif containing 1) | SID315458834 | -0.6 |
| TMBIM1 (transmembrane BAX inhibitor motif containing 1) | SID315458834 | -0.78 |
| TMBIM1 (transmembrane BAX inhibitor motif containing 1) | SID315458834 | -0.52 |
| TMBIM1 (transmembrane BAX inhibitor motif containing 1) | SID315458834 | -1.25 |
| MPC1 | SID315456834 | 0.87 |
| MPC1 | SID315456834 | 3.47 (active) |
| MPC1 | SID315456834 | -0.36 |
| MPC1 | SID315456834 | 0.05 |
| SCYL3 (SCY1 like pseudokinase 3) | SID315458294 | 1.17 |
| SCYL3 (SCY1 like pseudokinase 3) | SID315458294 | 2.16 |
| SCYL3 (SCY1 like pseudokinase 3) | SID315458294 | -0.19 |
| SCYL3 (SCY1 like pseudokinase 3) | SID315458294 | -0.72 |
| SLC25A38 | SID315457316 | 1.84 |
| SLC25A38 | SID315457316 | 0.03 |
| SLC25A38 | SID315457316 | 1.63 |
| SLC25A38 | SID315457316 | 1.07 |
| SLC38A9 | SID315462553 | -0.1 |
| SLC38A9 | SID315462553 | 0.1 |
| SLC38A9 | SID315462553 | 0.58 |
| SLC38A9 | SID315462553 | 0.96 |
| CCER1 (coiled-coil glutamate rich protein 1) | SID315462969 | -0.07 |
| CCER1 (coiled-coil glutamate rich protein 1) | SID315462969 | 0.74 |
| CCER1 (coiled-coil glutamate rich protein 1) | SID315462969 | 0.65 |
| CCER1 (coiled-coil glutamate rich protein 1) | SID315462969 | -0.65 |
| ZC3H8 (zinc finger CCCH-type containing 8) | SID315460392 | -0.62 |
| ZC3H8 (zinc finger CCCH-type containing 8) | SID315460392 | -0.99 |
| ZC3H8 (zinc finger CCCH-type containing 8) | SID315460392 | -0.63 |
| ZC3H8 (zinc finger CCCH-type containing 8) | SID315460392 | -0.67 |
| MICB (MHC class I polypeptide-related sequence B) | SID315449973 | 1.38 |
| MICB (MHC class I polypeptide-related sequence B) | SID315449973 | 2.62 |
| MICB (MHC class I polypeptide-related sequence B) | SID315449973 | 1.42 |
| MICB (MHC class I polypeptide-related sequence B) | SID315449973 | 2.63 |
| ARRDC2 (arrestin domain containing 2) | SID315455922 | -1.84 (active) |
| ARRDC2 (arrestin domain containing 2) | SID315455922 | -1.7 (active) |
| ARRDC2 (arrestin domain containing 2) | SID315455922 | -1.75 (active) |
| ARRDC2 (arrestin domain containing 2) | SID315455922 | -1.36 |
| STRA8 (stimulated by retinoic acid 8) | SID315464206 | -0.96 |
| STRA8 (stimulated by retinoic acid 8) | SID315464206 | -0.32 |
| STRA8 (stimulated by retinoic acid 8) | SID315464206 | 0.04 |
| STRA8 (stimulated by retinoic acid 8) | SID315464206 | -1.19 |
| SMC2 (structural maintenance of chromosomes 2) | SID315454219 | -0.34 |
| SMC2 (structural maintenance of chromosomes 2) | SID315454219 | -0.45 |
| SMC2 (structural maintenance of chromosomes 2) | SID315454219 | 0.38 |
| SMC2 (structural maintenance of chromosomes 2) | SID315454219 | 1.43 |
| DNAH7 (dynein axonemal heavy chain 7) | SID315458040 | 0.13 |
| DNAH7 (dynein axonemal heavy chain 7) | SID315458040 | 0.01 |
| DNAH7 (dynein axonemal heavy chain 7) | SID315458040 | 0.81 |
| DNAH7 (dynein axonemal heavy chain 7) | SID315458040 | -0.29 |
| NUDT2 (nudix hydrolase 2) | SID315447334 | -0.55 |
| NUDT2 (nudix hydrolase 2) | SID315447334 | 0.52 |
| NUDT2 (nudix hydrolase 2) | SID315447334 | -0.09 |
| NUDT2 (nudix hydrolase 2) | SID315447334 | -0.51 |

No new results follow: 11 of the entries above.
| Gene | PubChem SID | TNF reporter robust z-score |
| --- | --- | --- |
| MPC1 | SID315456834 | 3.47 (active) |
| MPC1 | SID315456834 | -0.36 |
| MPC1 | SID315456834 | 0.05 |
| SCYL3 (SCY1 like pseudokinase 3) | SID315458294 | 1.17 |
| SCYL3 (SCY1 like pseudokinase 3) | SID315458294 | 2.16 |
| SCYL3 (SCY1 like pseudokinase 3) | SID315458294 | -0.19 |
| SCYL3 (SCY1 like pseudokinase 3) | SID315458294 | -0.72 |
| SLC25A38 | SID315457316 | 1.84 |
| SLC25A38 | SID315457316 | 0.03 |
| SLC25A38 | SID315457316 | 1.63 |
| SLC25A38 | SID315457316 | 1.07 |
